Data from article doi:10.1101/692707.
No constants are given. Whether binding was seen depends on the method and setting. Some results given as binding are weak or reduced against the parent protein; the word gives no strength.

Protein sequences, listed by entry. Tags and fused reporters are not part of them. Residues count along the entry.
UniProt P0A6F5, residues 191-376: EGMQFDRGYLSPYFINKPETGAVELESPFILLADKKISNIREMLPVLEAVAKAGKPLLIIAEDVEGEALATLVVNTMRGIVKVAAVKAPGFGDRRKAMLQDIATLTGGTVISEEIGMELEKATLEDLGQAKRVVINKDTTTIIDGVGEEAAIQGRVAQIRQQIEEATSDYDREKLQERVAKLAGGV

Molecular target: non-UMPylated GroEL (GroEL191-376aa), biotinylated by EZ-Link-Biotin (E. coli str. K12 substr. MG1655) (UniProt P0A6F5)
Assay: pull-down

B1: human ornithine carbamoyltransferase (protein, UniProt P00480 33-354)
chain: NKVQLKGRDLLTLKNFTGEEIKYMLWLSADLKFRIKQKGEYLPLLQGKSLGMIFEKRSTRTRLSTETGFALLGGHPCFLTTQDIHLGVNESLTDTARVLSSMADAVLARVYKQSDLDTLAKEASIPIINGLSDLYHPIQILADYLTLQEHYSSLKGLTLSWIGDGNNILHSIMMSAAKFGMHLQAATPKGYEPDASVTKLAEQYAKENGTKLLLTNDPLEAAHGGNVLITDTWISMGQEEEKKKRLQAFQGYQVTMKTAKVAASDWTFLHCLPRKPEEVDDEVFYSPRSLVFPEAENRKWTIMAVMVSLLTDYSPQLQKPKF
binding: binds
